Laboratory results as given in the supplement of paper PMC10849652.
The list shows a part of the results.

The chains behind the UniProt entries cited, without tags or fusion partners. Where a name states a change or a piece, a line headed by the entry shows the natural chain unless it says otherwise.
UniProt P07451: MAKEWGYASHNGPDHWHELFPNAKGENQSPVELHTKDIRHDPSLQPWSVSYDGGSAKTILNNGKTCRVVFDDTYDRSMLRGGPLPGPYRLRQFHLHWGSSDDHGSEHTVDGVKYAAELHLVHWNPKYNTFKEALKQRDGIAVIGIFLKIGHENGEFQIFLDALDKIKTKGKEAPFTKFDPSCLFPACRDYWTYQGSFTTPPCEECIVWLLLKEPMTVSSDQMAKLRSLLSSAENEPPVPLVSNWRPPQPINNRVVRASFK
UniProt Q7Z6I8: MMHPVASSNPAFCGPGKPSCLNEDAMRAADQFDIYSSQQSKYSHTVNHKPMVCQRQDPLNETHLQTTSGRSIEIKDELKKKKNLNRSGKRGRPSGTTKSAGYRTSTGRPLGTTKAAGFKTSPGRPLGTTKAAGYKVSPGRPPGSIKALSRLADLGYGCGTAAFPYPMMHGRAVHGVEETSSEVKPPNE
UniProt Q9NSG2: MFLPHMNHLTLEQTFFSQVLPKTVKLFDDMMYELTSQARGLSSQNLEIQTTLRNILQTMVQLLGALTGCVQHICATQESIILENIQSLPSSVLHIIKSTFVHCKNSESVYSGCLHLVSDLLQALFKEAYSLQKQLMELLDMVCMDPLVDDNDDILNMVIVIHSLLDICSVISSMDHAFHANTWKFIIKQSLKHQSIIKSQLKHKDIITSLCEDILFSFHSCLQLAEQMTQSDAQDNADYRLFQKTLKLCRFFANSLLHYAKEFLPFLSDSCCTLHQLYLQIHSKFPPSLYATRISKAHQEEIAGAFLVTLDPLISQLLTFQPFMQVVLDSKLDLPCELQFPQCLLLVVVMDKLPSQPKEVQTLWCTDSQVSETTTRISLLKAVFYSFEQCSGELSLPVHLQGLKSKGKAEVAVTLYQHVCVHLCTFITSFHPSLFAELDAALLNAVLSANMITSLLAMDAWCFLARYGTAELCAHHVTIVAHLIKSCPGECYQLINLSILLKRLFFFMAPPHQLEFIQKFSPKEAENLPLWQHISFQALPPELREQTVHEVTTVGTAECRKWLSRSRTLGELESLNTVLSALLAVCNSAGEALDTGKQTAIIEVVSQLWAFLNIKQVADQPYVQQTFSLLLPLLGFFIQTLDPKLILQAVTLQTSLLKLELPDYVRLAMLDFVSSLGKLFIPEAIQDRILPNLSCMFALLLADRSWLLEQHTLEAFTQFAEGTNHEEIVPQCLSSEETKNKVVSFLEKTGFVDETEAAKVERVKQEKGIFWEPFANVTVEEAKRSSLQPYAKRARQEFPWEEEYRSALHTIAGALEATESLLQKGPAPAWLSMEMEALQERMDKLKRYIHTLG
UniProt Q96NL8: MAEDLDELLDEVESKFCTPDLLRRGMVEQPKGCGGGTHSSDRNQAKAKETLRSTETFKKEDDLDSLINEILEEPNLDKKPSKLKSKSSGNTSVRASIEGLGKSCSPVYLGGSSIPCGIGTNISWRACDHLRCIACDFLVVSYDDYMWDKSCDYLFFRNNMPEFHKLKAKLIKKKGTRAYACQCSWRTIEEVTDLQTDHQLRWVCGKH
UniProt Q9BX69: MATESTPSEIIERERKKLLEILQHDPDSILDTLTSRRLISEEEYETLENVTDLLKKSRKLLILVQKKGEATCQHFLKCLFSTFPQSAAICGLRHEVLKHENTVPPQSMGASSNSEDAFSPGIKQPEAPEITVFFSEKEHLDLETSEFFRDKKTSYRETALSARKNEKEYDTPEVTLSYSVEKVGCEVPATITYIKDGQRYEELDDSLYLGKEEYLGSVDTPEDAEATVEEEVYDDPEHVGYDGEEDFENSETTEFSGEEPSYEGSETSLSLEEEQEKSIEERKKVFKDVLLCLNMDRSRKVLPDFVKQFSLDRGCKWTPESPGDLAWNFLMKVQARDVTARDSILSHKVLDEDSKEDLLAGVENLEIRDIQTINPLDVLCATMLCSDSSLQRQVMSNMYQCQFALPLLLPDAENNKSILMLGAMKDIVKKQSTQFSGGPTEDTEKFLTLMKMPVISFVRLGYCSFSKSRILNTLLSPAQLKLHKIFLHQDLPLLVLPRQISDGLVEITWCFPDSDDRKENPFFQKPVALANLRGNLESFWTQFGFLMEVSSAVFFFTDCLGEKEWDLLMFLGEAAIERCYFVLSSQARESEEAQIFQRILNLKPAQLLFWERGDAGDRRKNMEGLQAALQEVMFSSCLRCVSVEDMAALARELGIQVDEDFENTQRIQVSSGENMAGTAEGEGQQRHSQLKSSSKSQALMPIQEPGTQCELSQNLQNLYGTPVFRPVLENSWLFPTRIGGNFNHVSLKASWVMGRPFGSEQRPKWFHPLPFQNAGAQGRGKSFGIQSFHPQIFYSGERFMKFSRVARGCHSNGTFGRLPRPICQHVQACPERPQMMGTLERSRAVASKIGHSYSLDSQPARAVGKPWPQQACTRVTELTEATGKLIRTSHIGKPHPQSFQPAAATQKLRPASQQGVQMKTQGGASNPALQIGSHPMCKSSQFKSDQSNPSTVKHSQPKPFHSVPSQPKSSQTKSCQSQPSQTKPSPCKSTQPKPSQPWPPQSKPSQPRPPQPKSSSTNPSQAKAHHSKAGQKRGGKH
UniProt Q5JPI3: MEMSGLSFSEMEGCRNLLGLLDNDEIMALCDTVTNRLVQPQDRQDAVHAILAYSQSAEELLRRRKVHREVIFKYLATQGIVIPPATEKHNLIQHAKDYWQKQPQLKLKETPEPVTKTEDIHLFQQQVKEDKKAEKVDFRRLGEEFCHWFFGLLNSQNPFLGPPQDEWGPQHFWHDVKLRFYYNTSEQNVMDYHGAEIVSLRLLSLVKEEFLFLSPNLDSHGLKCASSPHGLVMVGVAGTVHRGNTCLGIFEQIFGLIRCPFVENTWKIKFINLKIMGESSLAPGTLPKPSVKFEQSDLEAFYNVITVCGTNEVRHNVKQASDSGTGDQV
UniProt Q9BXL7: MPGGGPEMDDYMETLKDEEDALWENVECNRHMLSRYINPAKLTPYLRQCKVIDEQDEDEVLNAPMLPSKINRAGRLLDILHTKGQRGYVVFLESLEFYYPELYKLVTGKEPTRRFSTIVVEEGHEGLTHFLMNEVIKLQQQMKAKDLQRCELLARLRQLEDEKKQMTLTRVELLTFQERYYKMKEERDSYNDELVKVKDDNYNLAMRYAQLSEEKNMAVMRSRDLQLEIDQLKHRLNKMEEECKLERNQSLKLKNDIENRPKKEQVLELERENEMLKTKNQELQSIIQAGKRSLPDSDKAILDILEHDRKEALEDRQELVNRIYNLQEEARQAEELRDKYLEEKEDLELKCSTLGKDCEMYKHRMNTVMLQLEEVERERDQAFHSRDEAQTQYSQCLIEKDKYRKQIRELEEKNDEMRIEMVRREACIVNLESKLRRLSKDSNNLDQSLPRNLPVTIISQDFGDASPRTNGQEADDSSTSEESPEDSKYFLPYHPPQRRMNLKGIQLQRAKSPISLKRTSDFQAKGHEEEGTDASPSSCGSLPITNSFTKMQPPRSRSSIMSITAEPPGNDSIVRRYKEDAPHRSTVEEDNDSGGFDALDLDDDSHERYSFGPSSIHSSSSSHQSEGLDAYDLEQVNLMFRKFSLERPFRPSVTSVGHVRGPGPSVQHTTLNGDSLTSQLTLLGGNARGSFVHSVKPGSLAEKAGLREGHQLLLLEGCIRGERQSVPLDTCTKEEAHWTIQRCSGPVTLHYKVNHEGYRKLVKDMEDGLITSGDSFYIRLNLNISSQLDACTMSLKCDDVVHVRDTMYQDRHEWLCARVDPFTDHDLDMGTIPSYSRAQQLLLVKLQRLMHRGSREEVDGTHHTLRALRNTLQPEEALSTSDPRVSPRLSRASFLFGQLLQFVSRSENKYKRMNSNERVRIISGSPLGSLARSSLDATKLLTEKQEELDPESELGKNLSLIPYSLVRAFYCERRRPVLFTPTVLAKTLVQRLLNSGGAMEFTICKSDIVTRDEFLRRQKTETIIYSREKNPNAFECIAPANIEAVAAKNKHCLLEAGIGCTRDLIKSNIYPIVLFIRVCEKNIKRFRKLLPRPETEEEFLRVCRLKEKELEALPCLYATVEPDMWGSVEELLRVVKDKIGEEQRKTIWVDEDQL
UniProt Q9NSK7: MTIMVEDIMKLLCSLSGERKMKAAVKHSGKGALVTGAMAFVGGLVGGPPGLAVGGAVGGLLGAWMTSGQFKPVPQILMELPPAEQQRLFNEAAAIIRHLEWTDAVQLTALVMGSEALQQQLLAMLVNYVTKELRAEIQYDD
UniProt Q96L46: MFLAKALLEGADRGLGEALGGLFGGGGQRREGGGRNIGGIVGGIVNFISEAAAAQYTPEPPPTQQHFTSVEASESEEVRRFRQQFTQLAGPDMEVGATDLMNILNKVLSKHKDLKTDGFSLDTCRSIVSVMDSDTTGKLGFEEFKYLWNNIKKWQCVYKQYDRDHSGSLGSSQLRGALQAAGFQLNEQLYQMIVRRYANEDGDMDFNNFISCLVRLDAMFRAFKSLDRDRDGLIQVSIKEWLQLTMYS
UniProt P27482, whole entry, looked up: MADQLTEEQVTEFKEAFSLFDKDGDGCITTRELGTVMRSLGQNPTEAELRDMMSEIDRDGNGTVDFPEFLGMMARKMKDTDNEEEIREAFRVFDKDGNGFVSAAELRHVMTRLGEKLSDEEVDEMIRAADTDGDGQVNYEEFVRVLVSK
UniProt Q9BRJ6: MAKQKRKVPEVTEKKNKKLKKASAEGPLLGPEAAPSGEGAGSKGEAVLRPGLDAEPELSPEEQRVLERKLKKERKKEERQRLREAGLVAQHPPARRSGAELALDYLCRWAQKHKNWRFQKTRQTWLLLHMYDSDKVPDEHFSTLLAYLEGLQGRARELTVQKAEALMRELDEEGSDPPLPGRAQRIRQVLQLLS
UniProt Q9BSF8: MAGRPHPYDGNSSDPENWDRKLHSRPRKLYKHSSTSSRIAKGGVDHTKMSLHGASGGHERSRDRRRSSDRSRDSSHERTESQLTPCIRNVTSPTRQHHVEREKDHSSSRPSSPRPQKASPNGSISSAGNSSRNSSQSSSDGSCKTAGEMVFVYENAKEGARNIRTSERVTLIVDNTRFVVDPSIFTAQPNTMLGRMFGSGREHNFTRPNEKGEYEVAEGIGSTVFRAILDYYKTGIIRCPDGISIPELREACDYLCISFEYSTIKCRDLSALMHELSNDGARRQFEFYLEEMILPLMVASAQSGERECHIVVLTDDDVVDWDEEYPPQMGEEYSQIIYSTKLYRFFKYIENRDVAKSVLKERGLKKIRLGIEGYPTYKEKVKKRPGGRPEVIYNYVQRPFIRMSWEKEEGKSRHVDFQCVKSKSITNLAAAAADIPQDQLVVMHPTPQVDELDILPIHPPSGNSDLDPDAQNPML
UniProt Q05682: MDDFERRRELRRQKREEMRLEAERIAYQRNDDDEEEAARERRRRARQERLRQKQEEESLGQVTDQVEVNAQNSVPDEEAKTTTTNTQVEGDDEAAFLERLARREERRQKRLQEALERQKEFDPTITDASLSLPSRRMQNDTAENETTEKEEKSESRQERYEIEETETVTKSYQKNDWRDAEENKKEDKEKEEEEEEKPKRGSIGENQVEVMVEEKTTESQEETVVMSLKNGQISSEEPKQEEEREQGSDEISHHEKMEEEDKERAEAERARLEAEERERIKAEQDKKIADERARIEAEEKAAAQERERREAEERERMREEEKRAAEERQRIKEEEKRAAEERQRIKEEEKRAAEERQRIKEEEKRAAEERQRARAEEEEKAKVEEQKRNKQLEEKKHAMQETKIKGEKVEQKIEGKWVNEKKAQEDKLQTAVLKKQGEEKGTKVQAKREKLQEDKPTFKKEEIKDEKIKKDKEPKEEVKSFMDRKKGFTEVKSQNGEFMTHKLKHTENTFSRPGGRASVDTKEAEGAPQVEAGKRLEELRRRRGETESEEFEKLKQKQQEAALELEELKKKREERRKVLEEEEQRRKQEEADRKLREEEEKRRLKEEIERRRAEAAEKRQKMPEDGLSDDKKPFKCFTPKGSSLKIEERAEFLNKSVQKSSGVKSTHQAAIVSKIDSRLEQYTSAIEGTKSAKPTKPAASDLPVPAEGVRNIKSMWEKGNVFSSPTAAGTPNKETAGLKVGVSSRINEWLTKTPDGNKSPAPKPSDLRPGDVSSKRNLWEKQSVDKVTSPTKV
UniProt Q16581: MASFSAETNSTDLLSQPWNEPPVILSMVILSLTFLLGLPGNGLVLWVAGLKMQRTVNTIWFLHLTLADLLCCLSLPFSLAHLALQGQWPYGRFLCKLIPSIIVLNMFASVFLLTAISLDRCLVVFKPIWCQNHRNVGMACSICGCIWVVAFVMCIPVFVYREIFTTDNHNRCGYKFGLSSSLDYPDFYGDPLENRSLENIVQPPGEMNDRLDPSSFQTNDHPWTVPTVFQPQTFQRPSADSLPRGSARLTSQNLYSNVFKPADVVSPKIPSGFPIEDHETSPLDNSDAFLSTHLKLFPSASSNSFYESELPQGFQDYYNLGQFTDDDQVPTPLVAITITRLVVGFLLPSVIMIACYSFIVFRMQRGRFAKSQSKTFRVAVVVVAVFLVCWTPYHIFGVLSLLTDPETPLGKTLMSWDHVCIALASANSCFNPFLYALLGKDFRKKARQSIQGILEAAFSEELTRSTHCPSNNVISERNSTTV

Legend:
Test in all cases: log2 fold change, soluble protein after heating vs DMSO (PISA); higher = thermal stabilisation; K562 cells, 10 uM, 30 min; active = over 0.2 and 3.5 SD of the protein, either way, in both replicates (recomputed)
[1] = compound: C1=CC(=C(C=C1Cl)C2=NC3=NC=CN=C3C(=N2)NC4=CC=NC=C4)F
Method in brief: (§1)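 K562 cells at 2×10^6 cells/mL were exposed to 10 μM compound for 30 min, then aliquots were heated for 3 min across 48°C-58°C, pooled, and extracted in PBS containing 0.5% NP-40 at 4°C. The supernatant after 21,000xg for 90 min was taken as soluble protein and measured by TMTpro 16plex LC-MS/MS with channel sums equalised. Thermal stability is reported relative to control samples, with values from duplicates. Fold changes are given on a log2 scale.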

[2] = compound: C1=CC=C(C=C1)C2=NC(=C(N2)C3=CC=NC=C3)C4=CC(=C(C=C4)Cl)O
Method in brief: as §1

[3] = compound: C1CCN(C1)C(=O)NC2=CC=CC(=C2)NC3=NC=C(C(=N3)NCCC4=CN=CN4)Br
Method in brief: as §1

[4] = compound: C1CN(CCC1(CC2=CC=C(C=C2)Cl)N)C3=NC=NC4=C3C=CN4
Method in brief: as §1

erlotinib = compound: C#Cc1cccc(Nc2ncnc3cc(OCCOC)c(OCCOC)cc23)c1 [erlotinib]
Method in brief: as §1

[5] = compound: C1=CC(=CC=C1C2=NC3=C(N2)C=C(C=C3)C(=O)N)OC4=CC=C(C=C4)Cl
Method in brief: as §1

[6] = compound: C1=CC2=NC=CN=C2C=C1/C=C/3\C(=O)NC(=O)S3
Method in brief: as §1

[7] = compound: C/C(=N\NC(=O)C1=CC(=CC=C1)S(=O)(=O)N2CCOCC2)/C3=C(C=CC(=C3)Cl)O
Method in brief: as §1

[8] = compound: C1=CC2=C(C=CC(=C2)/C=C\3/C(=O)NC(=NCC4=CC=CS4)S3)N=C1
Method in brief: as §1

[9] = compound: C1=CC=C2C(=C1)C3=NNC4=CC=CC(=C43)C2=O
Method in brief: as §1

Measured: log2 fold change

C9 (UniProt P02748)
inactive: [1] -0.101 | [2] -0.134 | [3] 0.077 | [4] 0.081

CA3 (UniProt P07451)
inactive: [1] -0.253 | [2] 0.009

C7orf26 (UniProt Q96N11)
inactive: erlotinib -0.123 | [1] 0.04 | [5] 0.267 | [6] 0.337 | [2] 0.138

CALM1 (UniProt G3V361)
inactive: erlotinib 0.024 | [5] -0.107

C5orf24 (UniProt Q7Z6I8)
inactive: [1] -0.605 | [3] -0.187 | [4] 0.228

C1orf112 (UniProt Q9NSG2)
inactive: [7] -0.14 | [8] 0.106 | [9] 0.005 | [3] -0.005 | [4] 0.164

C8orf37 (UniProt Q96NL8)
inactive: erlotinib 0.008 | [1] 0.268 | [5] -0.091 | [3] -0.008 | [4] -0.043

CARD6 (UniProt Q9BX69)
inactive: [2] -0.332

C12orf60 (UniProt Q5U649)
inactive: erlotinib -0.017 | [1] -0.248 | [5] -0.125 | [6] 0.261 | [3] -0.062 | [4] -0.141

C3orf38 (UniProt Q5JPI3)
inactive: [7] -0.044 | [1] 0.142 | [8] -0.137 | [6] 0.093 | [2] -0.154 | [9] 0.175 | [3] -0.043 | [4] 0

CARD11 (UniProt Q9BXL7)
inactive: [7] -0.125 | [1] -0.208 | [8] 0.26 | [9] -0.052

BTD isoform 3 (UniProt P43251)
inactive: erlotinib 0.02 | [1] 0.065 | [5] 0.018 | [6] 0.046 | [2] -0.021 | [3] 0.066 | [4] 0.062

C5orf30 (UniProt Q96GV9)
inactive: [7] 0.267 | [1] -0.056 | [8] 0.062 | [9] -0.347 | [3] 0.01 | [4] 0.128

CAPN1 (UniProt E9PLX0)
inactive: erlotinib 0.115 | [5] 0.005 | [6] -0.069

C19orf12 (UniProt Q9NSK7)
inactive: [7] 0.242 | [1] -0.098 | [8] 0 | [6] 0.089 | [9] -0.028 | [3] -0.032 | [4] -0.052

CAPNS2 (UniProt Q96L46)
inactive: [2] -0.009

C12orf73 (UniProt Q69YU5)
inactive: erlotinib -0.081 | [1] 0.178 | [5] -0.049 | [6] 0.098 | [2] 0.003 | [3] 0.057 | [4] 0.033

C16orf70 (UniProt Q9BSU1)
inactive: [7] -0.189 | [1] 0.25 | [8] 0.313 | [9] 0.058

CALML3 (UniProt P27482)
inactive: [7] 0.282 | [1] 0.184 | [8] 0.218 | [9] -0.288 | [3] -0.431 | [4] -0.248

CARD19 isoform 2 (UniProt Q96LW7)
inactive: [7] -0.07 | [1] -0.053 | [8] 0 | [6] -0.035 | [2] -0.01 | [9] 0.031 | [3] -0.153 | [4] -0.025

CAD (UniProt H7BZB3)
inactive: [7] -0.061 | [8] 0.242 | [9] -0.058

C7orf50 (UniProt Q9BRJ6)
inactive: [7] -0.119 | [8] -0.029 | [2] 0.023 | [9] 0.037 | [3] 0.06 | [4] 0.065

C5 (UniProt P01031)
inactive: [1] 0.024 | [3] 0.048 | [4] 0.187

CA1 (UniProt E5RIF9)
inactive: [1] 0.096 | [6] 0.135 | [3] 0.014 | [4] -0.453

C11orf96 (UniProt Q7Z7L8)
inactive: [1] 0.126 | [2] 0.003

C6orf120 (UniProt Q7Z4R8)
inactive: erlotinib -0.2 | [5] 0.134 | [6] -0.003 | [2] -0.009 | [3] 0.005 | [4] 0.028

C16orf87 (UniProt Q6PH81)
inactive: [1] 0.189 | [6] 0.067

10 consecutive records out of the list so far, for reference:
C19orf12 (UniProt Q9NSK7)
inactive: [7] 0.242 | [1] -0.098 | [8] 0 | [6] 0.089 | [9] -0.028 | [3] -0.032 | [4] -0.052

CAPNS2 (UniProt Q96L46)
inactive: [2] -0.009

C12orf73 (UniProt Q69YU5)
inactive: erlotinib -0.081 | [1] 0.178 | [5] -0.049 | [6] 0.098 | [2] 0.003 | [3] 0.057 | [4] 0.033

C16orf70 (UniProt Q9BSU1)
inactive: [7] -0.189 | [1] 0.25 | [8] 0.313 | [9] 0.058

CALML3 (UniProt P27482)
inactive: [7] 0.282 | [1] 0.184 | [8] 0.218 | [9] -0.288 | [3] -0.431 | [4] -0.248

CARD19 isoform 2 (UniProt Q96LW7)
inactive: [7] -0.07 | [1] -0.053 | [8] 0 | [6] -0.035 | [2] -0.01 | [9] 0.031 | [3] -0.153 | [4] -0.025

CAD (UniProt H7BZB3)
inactive: [7] -0.061 | [8] 0.242 | [9] -0.058

C7orf50 (UniProt Q9BRJ6)
inactive: [7] -0.119 | [8] -0.029 | [2] 0.023 | [9] 0.037 | [3] 0.06 | [4] 0.065

C5 (UniProt P01031)
inactive: [1] 0.024 | [3] 0.048 | [4] 0.187

CA1 (UniProt E5RIF9)
inactive: [1] 0.096 | [6] 0.135 | [3] 0.014 | [4] -0.453

(further entries)

BSN (UniProt Q9UPA5)
inactive: [7] 0.063 | [8] -0.022 | [9] -0.017

BTBD10 isoform 2 (UniProt Q9BSF8)
inactive: [7] -0.017 | [8] 0.035 | [9] -0.048

CALCOCO1 (UniProt Q9P1Z2)
inactive: erlotinib 0.026 | [1] 0.009 | [5] 0.001 | [6] 0.119 | [2] 0.061 | [3] 0.131 | [4] 0.076

CAP1 isoform 2 (UniProt Q01518)
inactive: [6] 0.226

CALD1 (UniProt Q05682)
inactive: erlotinib -0.224 | [1] 0.085 | [5] 0.2 | [2] 0.073

C11orf74 (UniProt Q86VG3)
inactive: erlotinib 0.112 | [1] -0.01 | [5] 0.143 | [3] -0.064 | [4] -0.001

BTN2A1 (UniProt Q7KYR7)
inactive: erlotinib 0.002 | [1] -0.26 | [5] -0.045 | [6] 0.177 | [2] 0.02 | [3] -0.079 | [4] 0.035

CAMK1 (UniProt Q14012)
inactive: [6] 0.125 | [2] -0.165

C1orf159 isoform 4 (UniProt Q96HA4)
inactive: [6] -0.05

C3AR1 (UniProt Q16581)
inactive: [6] -0.471
